# According to PubChem BioAssay AID493014 (National Center for Advancing Translational Sciences (NCATS), 2011):
# The other results are listed elsewhere or left out. The main result of the screen is listed elsewhere. These columns were measured beside it and carry no call. Most of these compounds were active or inconclusive in the main read-out, so they are no random draw. The note in brackets gives the kind of curve behind each potency; many fits are weak.
# Assay: qHTS Assay to Find Inhibitors of Chronic Active B-Cell Receptor Signaling
# Conditions: ABC-DLBCL IkBa-CBG/CBR reporter, luminescence ratio (green luciferase fused to IkBa over red control in TMD8 lymphoma cells), 4 h; measured here: CBR red luminescence, cell number
# In short: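 Cell line TMD8 (human ABC DLBCL), stably expressing tet-inducible CBG68-IkBa fusion and CBR; IMDM/0.5% FBS; cpd up to 46 uM; dox induction, 4 h, 37C/5% CO2; dual luminescence; green/red ratio; MG132 control.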
row,SMILES,AC50
1,O=C(Nc1cc(Cl)cc(Cl)c1)C(NCC1CCCO1)c1ccccc1 (configuration not stated),"29.1 µM [falling, single point]"
2,COc1ccc(/C=C2\SC(=S)N(CCC(=O)N3CCCCC3CCO)C2=O)cc1 (configuration not stated),"2 µM [falling, full curve]"
3,COc1ccc(C2CC(c3ccccc3)=NN2S(=O)(=O)c2ccccc2)cc1 (configuration not stated),"11.2 µM [rising, partial curve, poor fit]"
4,Cc1ccc2nc(-c3cccc(NS(C)(=O)=O)c3)cc(-c3ccccc3)c2c1,"23.1 µM [falling, single point]"
5,CC1CCN(CCC(=O)N/N=C/c2ccc([N+](=O)[O-])cc2)CC1,"2.82 µM [falling, partial curve, poor fit]"
6,Cn1c(=O)n(C)c2cc(/C=N/NC(=O)c3cc4cc(Br)ccc4o3)ccc21,"1.26 µM [falling, full curve, poor fit]"
7,Cc1ccc(-c2nnc(Nc3ccc4c(c3)OCO4)c3ccccc23)cc1S(N)(=O)=O,"11.6 µM [falling, partial curve, poor fit]"
8,O=C(O)CS(=O)CC(=O)Nc1cccc(C(F)(F)F)c1 (configuration not stated),"31.6 µM [falling, single point]"
9,COc1ccc(C(=O)NC2CCCCCC2)cc1OC1CCN(C(C)=O)CC1,"35.5 µM [falling, partial curve, poor fit]"
10,N#Cc1c(N)n(CCOC(=O)c2ccc(Cl)cc2)c2nc3ccccc3nc12,"4.11 µM [falling, single point]"
11,c1ccc(-n2ncc3c2ncn2cnnc32)cc1,"17.8 µM [falling, partial curve, poor fit]"
12,Cc1ccc2oc(=O)c3cnn(CC(=O)NCCN4CCOCC4)c3c2c1,"32.6 µM [rising, partial curve, poor fit]"
13,O=C(O)c1cccc(N2C(=O)/C(=C/c3ccc([N+](=O)[O-])cc3)C=C2c2ccccc2)c1,"1.26 µM [falling, full curve]"
14,COc1ccc(C(=O)Nc2ncc(C)s2)cc1S(=O)(=O)N1CCOCC1,"23.1 µM [falling, single point]"
15,O=C(Nc1ncc(Cc2ccccc2)s1)c1cccs1,"35.5 µM [falling, single point]"
16,COc1ccc(S(=O)(=O)Nc2cccc3c2O[C@H](CN(C)Cc2ccc(Cl)c(Cl)c2)[C@@H](C)CN([C@H](C)CO)C3=O)cc1,"18.4 µM [falling, single point]"
17,CCOC(=O)c1cnc(-n2nc(C)cc2C)nc1NC1CCCC1,"35.5 µM [falling, single point]"

# Look-ups from above.
# Cn1c(=O)n(C)c2cc(/C=N/NC(=O)c3cc4cc(Br)ccc4o3)ccc21 – AC50: 1.26 µM [falling, full curve, poor fit]
# COc1ccc(S(=O)(=O)Nc2cccc3c2O[C@H](CN(C)Cc2ccc(Cl)c(Cl)c2)[C@@H](C)CN([C@H](C)CO)C3=O)cc1 – AC50: 18.4 µM [falling, single point]
